Measured values from PMC6659632, “Preferential phosphatidylinositol 5-phosphate binding contributes to a destabilization of the VHS domain structure of Tom1” (Scientific Reports, 2019).
These are yes or no findings as the source states them, for the method shown.

Chains of the proteins cited; added tags and fusions are not shown. Residues count along the entry.
UniProt O60784, residues 20-152: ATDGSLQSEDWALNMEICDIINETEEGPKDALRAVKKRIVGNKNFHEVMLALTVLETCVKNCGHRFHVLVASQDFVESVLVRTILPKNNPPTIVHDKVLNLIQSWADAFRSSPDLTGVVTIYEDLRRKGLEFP

Biological target: Tom1 VHS domain (human) (UniProt O60784)
Assay: SEC + other: dynamic light scattering; Superdex 75 in 50 mM Tris-HCl (pH 7.3), 500 mM NaCl with or without 1 mM DTT; DLS at 25 °C, Tom1 VHS 0.8 mg/ml in 20 mM HEPES (pH 7.4), 150 mM KCl; mass also checked by ESI-MS; both purified

In the case of “Tom1 VHS domain (from UniProt O60784 20-152) (domain or fragment)”, the binding is reported as “no binding (tested: 0.8 mg/ml)”.
